Values from PubChem BioAssay AID1259424 (University of Nebraska Medical Center, 2018)
In all, the deposit lists about 14,000 reagents; shown is an unselected part. 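Higher correlation or smaller distance means closer resemblance to KSR1 loss; control wells, including KSR1 knockdowns, recur on many plates.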 Not stated in the record: the time to read-out.

- Screen: 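Seek colon cancer survival genes behaving like KSR1, using a six-gene signature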 (primary screen)
- System: human HCT116 colon cancer cells
- Reagent: siRNA pool against human genes, 50 nM
- Detection: 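Log2 levels of six mRNAs (branched-DNA multiplex), adjusted by two reference genes and the non-targeting median, then scored against the average KSR1 knockdown pattern as Pearson r and euclidean distance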
- Direction: mean correlation with KSR1 profile and KSR1 correlation: higher = expression change more like KSR1 knockdown; mean distance from KSR1 profile: higher = expression change less like KSR1 knockdown

target gene	mean correlation with KSR1 profile	mean distance from KSR1 profile	KSR1 correlation, replicate 1	KSR1 correlation, replicate 2	KSR1 correlation, replicate 3
GALNT11	-0.195	2.28	0.0152	-0.114	-0.662
PDZK1IP1	-0.199	1.65	-0.469	-0.0325	-0.0184
FRMD8	0.745	2.14	0.526	0.794	0.716
EXD2	-0.923	2.3	-0.791	-0.868	-0.897
TFEB	-0.601	2.04	-0.424	-0.376	-0.385
GSTP1	-0.21	1.2	-0.0241	-0.307	-0.587
DSC1	0.576	1.19	0.428	0.503	0.934
FAM3C	0.0435	1.72	-0.039	-0.00836	0.118
PPARD	-0.224	2.68	0.024	-0.132	-0.578
PGLYRP1	-0.663	2.05	-0.579	-0.605	-0.762
NEIL1	0.156	2.96	0.162	0.0927	0.169
ADAM2	-0.749	2.65	-0.613	-0.668	-0.936
RRP12	-0.248	2.62	-0.116	-0.225	-0.295
TSPAN5	-0.532	2.87	-0.347	-0.638	-0.546
EPHX1	0.472	1.79	0.362	0.644	0.473
POLA2	-0.413	2.97	-0.111	-0.554	-0.463
BNIP1	-0.0691	2.56	-0.444	-0.364	0.243
TCL1B	-0.329	2.01	-0.451	-0.273	-0.259
KARS1	-0.0559	1.39	-0.55	-0.492	0.748
FGF13	0.702	0.704	0.816	0.496	0.665
TGOLN2	0.0297	1.84	0.0439	-0.11	0.141
HBE1	-0.3	3.59	-0.328	-0.469	-0.39
USE1	0.293	4.32	0.365	0.286	0.249
STAMBP	0.0572	2.21	0.309	0.00144	-0.119
NXF1	0.438	3.96	0.691	0.468	-0.351
MGAM	0.113	2.33	0.057	-0.214	0.497

Part of the list above, reformatted.
DSC1
- mean correlation with KSR1 profile: 0.576
- mean distance from KSR1 profile: 1.19
- KSR1 correlation, replicate 1: 0.428
- KSR1 correlation, replicate 2: 0.503
- KSR1 correlation, replicate 3: 0.934

FAM3C
- mean correlation with KSR1 profile: 0.0435
- mean distance from KSR1 profile: 1.72
- KSR1 correlation, replicate 1: -0.039
- KSR1 correlation, replicate 2: -0.00836
- KSR1 correlation, replicate 3: 0.118

PPARD
- mean correlation with KSR1 profile: -0.224
- mean distance from KSR1 profile: 2.68
- KSR1 correlation, replicate 1: 0.024
- KSR1 correlation, replicate 2: -0.132
- KSR1 correlation, replicate 3: -0.578

PGLYRP1
- mean correlation with KSR1 profile: -0.663
- mean distance from KSR1 profile: 2.05
- KSR1 correlation, replicate 1: -0.579
- KSR1 correlation, replicate 2: -0.605
- KSR1 correlation, replicate 3: -0.762

NEIL1
- mean correlation with KSR1 profile: 0.156
- mean distance from KSR1 profile: 2.96
- KSR1 correlation, replicate 1: 0.162
- KSR1 correlation, replicate 2: 0.0927
- KSR1 correlation, replicate 3: 0.169

ADAM2
- mean correlation with KSR1 profile: -0.749
- mean distance from KSR1 profile: 2.65
- KSR1 correlation, replicate 1: -0.613
- KSR1 correlation, replicate 2: -0.668
- KSR1 correlation, replicate 3: -0.936

RRP12
- mean correlation with KSR1 profile: -0.248
- mean distance from KSR1 profile: 2.62
- KSR1 correlation, replicate 1: -0.116
- KSR1 correlation, replicate 2: -0.225
- KSR1 correlation, replicate 3: -0.295

TSPAN5
- mean correlation with KSR1 profile: -0.532
- mean distance from KSR1 profile: 2.87
- KSR1 correlation, replicate 1: -0.347
- KSR1 correlation, replicate 2: -0.638
- KSR1 correlation, replicate 3: -0.546

EPHX1
- mean correlation with KSR1 profile: 0.472
- mean distance from KSR1 profile: 1.79
- KSR1 correlation, replicate 1: 0.362
- KSR1 correlation, replicate 2: 0.644
- KSR1 correlation, replicate 3: 0.473

POLA2
- mean correlation with KSR1 profile: -0.413
- mean distance from KSR1 profile: 2.97
- KSR1 correlation, replicate 1: -0.111
- KSR1 correlation, replicate 2: -0.554
- KSR1 correlation, replicate 3: -0.463

Continued.
target gene	mean correlation with KSR1 profile	mean distance from KSR1 profile	KSR1 correlation, replicate 1	KSR1 correlation, replicate 2	KSR1 correlation, replicate 3
MRPL49	-0.356	2.87	-0.184	-0.362	-0.372
ANXA4	-0.091	3.12	0.256	-0.00307	-0.159
RAB10	-0.714	2.18	-0.438	-0.876	-0.509
TNPO3	-0.256	2.55	-0.534	-0.0925	-0.187
C1D	-0.0613	2.65	-0.0385	-0.0342	-0.055
CALCOCO1	0.0791	4.36	-0.0384	-0.411	0.285
ADCY10	0.487	2.38	0.621	0.22	0.501
FAXDC2	0.28	1.34	0.283	0.308	0.281
SPMAP2	-0.72	2.39	-0.64	-0.706	-0.68
GLS	-0.572	2.87	-0.608	-0.627	-0.526
ENOX2	0.3	2.1	0.398	0.362	0.181
MYO15A	-0.529	1.9	-0.452	-0.585	-0.594
USF2	-0.297	1.88	-0.388	-0.0223	-0.309
HIF1AN	0.165	2.76	0.318	-0.113	0.168
DHX38	-0.568	2.61	-0.471	-0.326	-0.217
NPVF	0.895	2.83	0.874	0.899	0.797
ESD	-0.22	5.55	-0.326	-0.0671	-0.267
SEMA3E	-0.654	1.27	-0.203	-0.461	-0.167
GATA3	0.175	3.2	0.188	0.325	0.178
HP	0.0182	2.81	-0.0746	-0.0872	-0.0549
CTSO	-0.954	3.88	-0.953	-0.874	-0.402
WBP11	-0.642	3.96	-0.431	-0.463	-0.693
PPT2	-0.0533	2.43	-0.0108	0.0449	0.068
CXCR2	0.669	1.41	0.597	0.652	0.696
ABCA8	-0.577	2.53	-0.543	-0.351	-0.698
CBFB	0.108	2.26	0.106	0.0467	0.299
PHEX	-0.13	1.45	-0.526	0.0687	0.0107
LMF1	0.379	1.89	0.0769	0.15	0.343
ZNF80	-0.197	1.96	-0.203	-0.189	-0.114
PDF	-0.507	2.44	-0.255	-0.415	-0.458
FHIP2B	0.333	1.14	0.0128	0.439	0.0238
SPAG7	-0.579	3	-0.499	-0.414	-0.652
EPX	-0.957	1.32	-0.734	-0.926	-0.84
CCDC177	0.0527	1.23	0.041	-0.397	0.295
PTCD3	-0.0124	2.19	0.0461	-0.141	-0.00615
FSTL4	-0.0208	3.85	0.0346	-0.0225	0.00898
IDS	0.493	3.81	0.663	0.000793	0.522
